{
  "source": "patent US4341798A",
  "about": "“Amide derivatives of p-isobutyl-phenyl-propionic acids and related pharmaceutical compositions” (Laboratori Prophin S.p.A., priority 1980, dated 1982)",
  "key": {"[1]": {"assay": "(B) Inhibition of the arthritis induced by Freund adjuvant in the rat", "type": "in vivo", "text": "(B) Inhibition of the arthritis induced by Freund adjuvant in the rat. (Newbould B.B. Brit. Journ. of Pharmacol. 21,127, 1963)."}, "[2]": {"assay": "(D) Analgesic activity in the Flinch-jump test in the rat", "type": "in vivo", "text": "(D) Analgesic activity in the Flinch-jump test in the rat.\n(Turner R. A. \"Screening methods in Pharmacology\" Accademic Press--New York 1965)."}},
  "note": "For at least one compound, name, drawing or mass did not settle the structure.",
  "data": [
    {"smiles": "CC(C)Cc1ccc(C(C)C(=O)O)cc1", "note": "(stereo not drawn) [Ibuprofen, p-isobutyl-phenyl-propionic acid]", "values": [
      {"measurement": "inhibition of lesions directly induced by Freund adjuvant in the injected paw", "setting": "[1]", "result": "inhibit the lesions directly induced by the Freund adjuvant in the injected paw"},
      {"measurement": "inhibition of the development of secundary lesions", "setting": "[1]", "result": "capable of inhibiting the development of the secundary lesions"},
      {"measurement": "increase of the algogenic threshold", "setting": "[2]", "result": "increase of the algogenic threshold, proportionally to the administered dose"}
    ]}
  ]
}
